Measurements reported in PubChem BioAssay AID743121 (NCATS, 2013)
Shown is one part, drawn at random, of about 26,000 reagents tested. 167 of them (0.63%) count as active. 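Calls are per gene from RSA p-values that are not deposited; an individual active-marked siRNA can sensitise only weakly.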 Entries without a mark were called inactive. Reagents against one gene are numbered here. Further read-outs or replicates are left out here.

Test: 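Partners whose loss is lethal together with topoisomerase I blockade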 (primary screen)
Cells: MDA-MB-231 cells, a human breast cancer line
Reagents: single siRNA against human genes, 20 nM siRNA (0.8 pmol per well)
Time to read-out: 120 h (drug added 48 h after transfection, read 72 h later)
Treatment: camptothecin 20 nM (about EC30) for 72 h; vehicle 0.1% DMSO in parallel plates
Measurement: 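Cell viability by ATP luminescence (CellTiter-Glo) as % of non-targeting siRNA wells, and the log2 ratio of viability without drug over viability with camptothecin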
Reading the numbers: log2 vehicle/camptothecin viability: higher = stronger sensitisation to camptothecin
Active means: 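Active genes have an RSA gene-level p-value below 0.001, computed from the ratios of their separate siRNAs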

target gene,reagent,log2 vehicle/camptothecin viability
"RAB27A (RAB27A, member RAS oncogene family)",1,0.207
"RAB27A (RAB27A, member RAS oncogene family)",2,-0.164
"RAB27A (RAB27A, member RAS oncogene family)",3,0.103
"RAB27A (RAB27A, member RAS oncogene family)",4,-0.376
SNRPA1 (small nuclear ribonucleoprotein polypeptide A'),1,-0.665
SNRPA1 (small nuclear ribonucleoprotein polypeptide A'),2,-0.397
SNRPA1 (small nuclear ribonucleoprotein polypeptide A'),3,-0.716
SNRPA1 (small nuclear ribonucleoprotein polypeptide A'),4,-0.451
WASF3 (WASP family member 3),1,0.623
WASF3 (WASP family member 3),2,-0.191
WASF3 (WASP family member 3),3,-0.101
WASF3 (WASP family member 3),4,0.0835
IRF2BP1 (interferon regulatory factor 2 binding protein 1),1,-0.259
IRF2BP1 (interferon regulatory factor 2 binding protein 1),2,0.425
IRF2BP1 (interferon regulatory factor 2 binding protein 1),3,-0.0559
TUBGCP3 (tubulin gamma complex component 3),1,-0.371
TUBGCP3 (tubulin gamma complex component 3),2,-0.686
TUBGCP3 (tubulin gamma complex component 3),3,-0.487
TUBGCP3 (tubulin gamma complex component 3),4,-0.0882
PDE4A (phosphodiesterase 4A),1,-0.0063
PDE4A (phosphodiesterase 4A),2,-0.162
PDE4A (phosphodiesterase 4A),3,0.64
PDE4A (phosphodiesterase 4A),4,0.132
MPRIP (myosin phosphatase Rho interacting protein),1,0.21
MPRIP (myosin phosphatase Rho interacting protein),2,-0.464
MPRIP (myosin phosphatase Rho interacting protein),3,-0.554
MPRIP (myosin phosphatase Rho interacting protein),4,-0.387
SGCB (sarcoglycan beta),1,-0.0492
SGCB (sarcoglycan beta),2,0.0361
SGCB (sarcoglycan beta),3,-0.0126

5 entries already listed, arranged by “log2 vehicle/camptothecin viability”, ascending.
target gene,reagent,log2 vehicle/camptothecin viability
SNRPA1 (small nuclear ribonucleoprotein polypeptide A'),1,-0.665
"RAB27A (RAB27A, member RAS oncogene family)",4,-0.376
"RAB27A (RAB27A, member RAS oncogene family)",2,-0.164
"RAB27A (RAB27A, member RAS oncogene family)",3,0.103
"RAB27A (RAB27A, member RAS oncogene family)",1,0.207
